# PubChem BioAssay AID1671195 | Yale University – 2021
# Aim: 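Knockdowns that increase or decrease uptake of fluorescent LDL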 (primary screen)
# Cell system: human Huh7 hepatoma cells
# Knock-down reagent: siRNA pool against human genes, 18 nM
# Duration: about 2 to 2.5 days of knockdown, then 8 h LDL uptake
# Conditions: DiI-labelled LDL at 30 µg/ml for 8 h, in lipoprotein-deficient serum medium
# Detection: 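Per-cell DiI-LDL intensity by automated imaging; well means scaled to the plate median and given as a robust z-score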
# Reading the numbers: robust z-score: higher = more LDL uptake after knockdown
# Rule for the call: 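Active when two or more replicates show a robust z-score above 2 or below -2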
# The whole screen tested about 22,000 reagents; this is an unselected part. Of all reagents, about 1,510 (6.9%) got an active call. 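Active includes knockdowns raising or lowering LDL uptake; positive z-scores mean more uptake, negative mean less.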 Entries without a mark were called inactive. The numbers tell different reagents against one gene apart.
"robust z-score, replicate 1","robust z-score, replicate 2","robust z-score, replicate 3",gene knocked down,pool no.
0.481,0.258,0.916,BIK (BCL2 interacting killer),1
-1.1,-0.98,-1.1,ACKR3 (atypical chemokine receptor 3),1
0.0811 (active),2.13,2.06,LOC440752 (retired record),1
0.783,0.171,0.757,GSG1L (GSG1 like),1
0.0597,-0.7,0.0773,ARHGEF28 (Rho guanine nucleotide exchange factor 28),1
0.26,0.328,-0.17,ARSD (arylsulfatase D),1
-1.14,-0.992,-0.858,MAGEB18 (MAGE family member B18),1
-0.246,0.378,-0.619,DYNC1I2 (dynein cytoplasmic 1 intermediate chain 2),1
0.648,0.134,0.169,EGFL8 (EGF like domain multiple 8),1
0.855,1.22,1.21,IL13RA1 (interleukin 13 receptor subunit alpha 1),1
1.41,1.34,-2.07,UBQLN2 (ubiquilin 2),1
0.0071,-0.34,1.19,ERG (ETS transcription factor ERG),1
0.439,0.376,0.617,POLR3F (RNA polymerase III subunit F),1
1,0.909,1.1,IL15 (interleukin 15),1
0.642,0.0274,0.0685,PUS10 (pseudouridine synthase 10),1
0.956,0.335,1.35,COG4 (component of oligomeric golgi complex 4),1
0.35,0.495,-0.315,SLC31A1,1
0.68,0.904,0.46,TIGD5 (tigger transposable element derived 5),1
-0.763,-0.325,-0.279,ARHGAP11A (Rho GTPase activating protein 11A),1
-0.479,-0.974,-0.189,RPL24 (ribosomal protein L24),1
0.175,-0.303,0.0243,C20orf204 (chromosome 20 open reading frame 204),1
-1.71,-0.974,1.88,MAFB (MAF bZIP transcription factor B),1
0.0203,0.509,0.14,CNBP (CCHC-type zinc finger nucleic acid binding protein),1
-1.41,-1.18,-0.937,MRPS27 (mitochondrial ribosomal protein S27),1
-0.418,0.187,-0.527,QTRT1 (queuine tRNA-ribosyltransferase catalytic subunit 1),1
-1.12,-0.625,-0.756,LRRFIP2 (LRR binding FLII interacting protein 2),1
-0.177,-0.424,-0.765,LOC389988 (retired record),1
-1.7,-0.167,-0.845,KBTBD4 (kelch repeat and BTB domain containing 4),1
1.6,0.909,1.56,CTC1 (CST telomere replication complex component 1),1
-0.869,-0.281,-1.1,UTP25 (UTP25 small subunit processome component),1
-2.85 (active),,,LDLR (low density lipoprotein receptor),1
-2.96 (active),-2.77,-2.94,LDLR (low density lipoprotein receptor),2
-0.431,-0.563,-0.591,"SUPT5H (SPT5 homolog, DSIF elongation factor subunit)",1
-0.505,-0.655,-0.238,GRIK5 (glutamate ionotropic receptor kainate type subunit 5),1
2.1 (active),2.47,-1.63,POP7 (POP7 ribonuclease P/MRP subunit),1
-0.604,-0.865,-1.08,LINC01996 (long independently transcribed non-coding RNA 1996),1
0.435,0.126,-0.108,"ALG10B (ALG10 alpha-1,2-glucosyltransferase B)",1
-0.217,0.0817,0.0702,VPS11 (VPS11 core subunit of CORVET and HOPS complexes),1
-1.03,-0.0344,-1.95,PSMC3IP (PSMC3 interacting protein),1
-0.359,-0.665,-0.697,LOC442099 (retired record),1
-0.679,-0.987,-0.862,GUSBP5 (GUSB pseudogene 5),1
0.161,-0.497,0.81,GINS2 (GINS complex subunit 2),1
-0.781,-0.698,-0.505,CLEC9A (C-type lectin domain containing 9A),1
2 (active),1.9,1.28,LOC389443 (retired record),1
-1.01,-0.349,-1.14,EPOR (erythropoietin receptor),1
-0.805,-0.828,-0.731,TMEM218 (transmembrane protein 218),1
-1.42,0.96,-1.87,HMGCS2 (3-hydroxy-3-methylglutaryl-CoA synthase 2),1
-1.25,-0.878,-0.786,ZP4 (zona pellucida glycoprotein 4),1
-0.913,-0.869,-0.695,LINC00698 (long independently transcribed non-coding RNA 698),1
-1.13,-1.31,-0.359,FOXK2 (forkhead box K2),1
0.572,-0.622,0.287,CD300LF (CD300 molecule like family member f),1
-1.05,-0.47,-0.327,REPS2 (RALBP1 associated Eps domain containing 2),1
0.634,0.865,1.24,P3H3 (prolyl 3-hydroxylase 3),1
0.848,1.06,1.2,CTDSP1 (CTD small phosphatase 1),1
-0.977,-0.963,0.839,ARHGAP20 (Rho GTPase activating protein 20),1
0.163,0.136,0.182,PRAC1 (PRAC1 small nuclear protein),1
-0.147,-1.4,-1.13,MCCD1 (mitochondrial coiled-coil domain 1),1
-0.184,-0.951,-0.541,ARID3B (AT-rich interaction domain 3B),1
0.329,0.309,0.313,LOC390760 (retired record),1
0.131,-0.243,0.054,DRC8 (dynein regulatory complex subunit 8),1
-0.342,-0.942,-0.906,SIX3 (SIX homeobox 3),1
-0.334,-0.525,-0.521,LOC387756 (retired record),1
-0.653,-0.675,-0.512,FRG2C (FSHD region gene 2 family member C),1
-2.46 (active),-1.96,-2.59,DYRK4 (dual specificity tyrosine phosphorylation regulated kinase 4),1
-0.378,-1.15,-0.105,OTOS (otospiralin),1
-1.44,0.7,-1.32,UBE3B (ubiquitin protein ligase E3B),1
0.123,-0.279,-0.372,LINC01205 (long independently transcribed non-coding RNA 1205),1
-1.85 (active),-2.13,-1.92,MTMR9 (myotubularin related protein 9),1
-1.29,-0.967,-0.641,UPK3A (uroplakin 3A),1
-0.0464,0.00712,0.319,KIAA1586,1
-1.74,-0.857,-0.349,LOC440856 (retired record),1
0.574,-0.0239,0.176,RMDN2 (regulator of microtubule dynamics 2),1
0.0901,0.0612,0.244,RFX4 (regulatory factor X4),1
-1.33,-1.69,-1.45,AKAP11 (A-kinase anchoring protein 11),1
-1.12,-1.47,-1.07,LINC02877 (long independently transcribed non-coding RNA 2877),1
1.83,1.01,2.5,TMEM87B (transmembrane protein 87B),1
-0.269,0.1,0.292,MSH4 (mutS homolog 4),1
1.05,1.42,0.977,CNIH1 (cornichon family member 1),1
0.414,0.251,1.34,NBR1 (NBR1 autophagy cargo receptor),1
1.94 (active),1.86,2.67,SLC4A5,1
0.953,0.782,0.826,ZFP64 (ZFP64 zinc finger protein),1
-1.29,-1.23,-1.11,FAM41C (family with sequence similarity 41 member C),1
0.814,0.0292,-0.103,TBC1D23 (TBC1 domain family member 23),1
1.06,0.878,1.17,HSPA4L (heat shock protein family A (Hsp70) member 4 like),1
0.604,0.839,0.92,TRIO (trio Rho guanine nucleotide exchange factor),1
0.81,0.914,1.14,SEPTIN7P11 (septin 7 pseudogene 11),1
-1.95 (active),-1.94,-2.05,CD2AP (CD2 associated protein),1

7 entries from above, reduced to “robust z-score, replicate 1”.
DYNC1I2 (dynein cytoplasmic 1 intermediate chain 2) = -0.246
EGFL8 (EGF like domain multiple 8) = 0.648
IL13RA1 (interleukin 13 receptor subunit alpha 1) = 0.855
UBQLN2 (ubiquilin 2) = 1.41
ERG (ETS transcription factor ERG) = 0.0071
POLR3F (RNA polymerase III subunit F) = 0.439
IL15 (interleukin 15) = 1
